Source: PubChem BioAssay AID1259425 (University of Nebraska Medical Center, 2018)

- Assay: 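Compare each knockdown with KSR1 silencing using changes in marker transcripts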 (primary screen)
- System: HCT116 human colon cancer cells
- Reagent: siRNA pool against human genes, 50 nM siRNA
- Read-out: 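After 50 nM siRNA pool, branched-DNA assay measures six marker transcripts per well, minus blank, normalised to the geometric mean of two housekeeping transcripts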
- Direction: BNIP3L mRNA: higher = more BNIP3L transcript after knockdown; NDRG1 mRNA: higher = more NDRG1 transcript after knockdown
In all, the deposit lists about 14,000 reagents; below is an unselected part. Not all columns of the deposit are shown. Not given: the time to read-out.

APAF1 (apoptotic peptidase activating factor 1) — BNIP3L mRNA, set 1: 0.119; NDRG1 mRNA, set 1: 0.077
CLIP3 (CAP-Gly domain containing linker protein 3) — BNIP3L mRNA, set 1: 0.0873; NDRG1 mRNA, set 1: 0.295
PTPRT (protein tyrosine phosphatase receptor type T) — BNIP3L mRNA, set 1: 0.1; NDRG1 mRNA, set 1: 0.0688
CCDC181 (coiled-coil domain containing 181) — BNIP3L mRNA, set 1: 0.0726; NDRG1 mRNA, set 1: 0.135
SBDS (SBDS ribosome maturation factor) — BNIP3L mRNA, set 1: 0.0659; NDRG1 mRNA, set 1: 0.0955
IL15 (interleukin 15) — BNIP3L mRNA, set 1: 0.0627; NDRG1 mRNA, set 1: 0.11
CHRNA7 (cholinergic receptor nicotinic alpha 7 subunit) — BNIP3L mRNA, set 1: 0.29; NDRG1 mRNA, set 1: 0.396
CLOCK (clock circadian regulator) — BNIP3L mRNA, set 1: 0.0656; NDRG1 mRNA, set 1: 0.365
DOK1 (docking protein 1) — BNIP3L mRNA, set 1: 0.101; NDRG1 mRNA, set 1: 0.836
ZNF34 (zinc finger protein 34) — BNIP3L mRNA, set 1: 0.0475; NDRG1 mRNA, set 1: 0.366
TRPM5 — BNIP3L mRNA, set 1: 0.0715; NDRG1 mRNA, set 1: 0.182
UBE2E1 (ubiquitin conjugating enzyme E2 E1) — BNIP3L mRNA, set 1: 0.0534; NDRG1 mRNA, set 1: 0.257

2 entries from above, showing only “BNIP3L mRNA, set 1”:
CLOCK (clock circadian regulator)	0.0656
DOK1 (docking protein 1)	0.101
